The results in this text go back to PubChem BioAssay AID2685 (National Center for Advancing Translational Sciences (NCATS), 2010).

This assay in a line: qHTS Assay for Lipid Storage Modulators in Drosophila S3 Cells.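 For cell number change: cells counted by Cell Tracker Red CMTPX staining in the red channel.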 The conditions noted are these: BODIPY lipid droplet fluorescence, 18-24 h; for cell number change: measured here: cell count max response, cells fed with added oleic acid. Put shortly: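 Drosophila S3 cells got compounds at several concentrations plus oleic acid (400 uM solution). Laser-scanning cytometry with 488 nm excitation read lipid droplets at 500-530 nm and cells at 575-640 nm. Percent activity was relative to 20 uM Triacsin C.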
(In qHTS, concentration-response curves come from the screen itself.)

Where [1] appears, read: measured here: cell number channel AC50, cells fed with added oleic acid.
Where [2] appears, read: measured here: lipid fluorescence (Fed channel) AC50, cells fed with added oleic acid.

Some of the results follow. Shown are side measurements of this screen, not its main read-out; they come without a call. Compounds called inactive in the main read-out are mostly missing here. Words in brackets tell the shape of the fitted curve; partial curves, single points and poor fits give uncertain potencies.

Take `C/C(N)=C(/C#N)C(=O)CSc1nc(C2CCCCC2)n(-c2ccccc2)n1`: the cell number change turned out to be 15.4%. For the same compound, the AC50 under setting [1] was 6.51 µM [falling, single point].
On to `COc1cc(COCC(O)CN2CCN(Cc3ccccc3)CC2)cc(OC)c1OC` (stereo not given), for which the AC50 under setting [1] is 0.82 µM [falling, single point].
On to `O=C1c2ccccc2C(=O)C1c1nccc2ccccc12`, for which the cell number change was -6.64%.
For the compound `O=C(CN1CCCCCC1)Nc1ccc(S(=O)(=O)N2CCCCC2)cc1`, the cell number change turned out to be 0.87%. In addition, the AC50 under setting [2] is 29.1 µM [rising, single point].
As for `COCCN1C(=O)/C(=C/c2ccc(N3CCCC3)cc2)SC1=S`, the cell number change came out at 5.71%. Besides, the AC50 under setting [2] was 6.51 µM [falling, single point].
As to `COC(=O)c1sccc1NC(=O)CC1C(=O)NCCN1C(=O)Nc1ccc(OCc2ccccc2)cc1` (stereo not given), the cell number change is 22.8%. Further, the AC50 under setting [1] is 0.103 µM [rising, full curve, poor fit]. In addition, the AC50 under setting [2] was 0.116 µM [rising, full curve, poor fit].
With `Cc1cc(NC(=O)COn2nnc3ccc(S(C)(=O)=O)cc32)ccc1Br`, the cell number change stood at 12.8%. Under setting [2], the half-maximal activity concentration (AC50) is 6.51 µM [rising, partial curve].
For `Cc1ccc(NC(=O)c2ccc(Cl)c(S(=O)(=O)N3CCCC3)c2)nc1`, the cell number change is -21.9%.
As for `O=C(Nc1cccc2ncccc12)c1ccccc1[N+](=O)[O-]`, the cell number change is -16%. Further, the AC50 under setting [2] was 29.1 µM [falling, single point].
Regarding `NS(=O)(=O)c1cccc(NC(=O)Cn2nc(C(=O)O)c3ccccc3c2=O)c1`, the cell number change was -10.5%.
For the compound `C=CCNc1nnc(C)c2ccccc12`, the cell number change is -1.38%. In addition, the concentration at half-maximal activity (AC50) under setting [2] was 2.31 µM [rising, partial curve].
As for `Cc1cccc(N2CCN(S(=O)(=O)c3ccc4c(c3)CCN4C(=O)CCC(=O)O)CC2)c1C`, the AC50 under setting [2] is 0.164 µM [falling, full curve, poor fit].
Regarding `COc1ccccc1CNCC(=O)N1CC(=O)Nc2ccccc21`, the cell number change was -3.28%.
As for `CS(=O)(=O)N1CCC(C(=O)Nc2c(F)cccc2F)CC1`, the cell number change worked out at 7.93%. Besides, under setting [2], the AC50 is 6.51 µM [falling, single point].
In the case of `O=C(Nc1nc2ccccc2[nH]1)c1ccccc1[N+](=O)[O-]`, the cell number change was determined as 21.1%. Further, the half-maximal activity concentration (AC50) under setting [1] is 0.13 µM [rising, full curve, poor fit].
Turning to `CCOc1cc(C2NC(=O)c3ccccc3O2)ccc1OC(C)C` (stereo not given), the cell number change worked out at 4.62%.
`CC(C)C(NC(=O)c1ccco1)C(=O)NCC(c1ccco1)N(C)C` (stereo not given): the cell number change came out at 6.95%.
On to `O=C(O)C1CCCCC1C(=O)Nc1ccccc1C(=O)N1CCN(c2ccc(F)cc2)CC1` (stereo not given), for which the cell number change is -16.7%. Besides, the AC50 under setting [2] was 29.1 µM [rising, single point].
For the compound `CCOC(=O)Cc1csc(SCC(=O)N(CC(C)C)c2c(N)n(Cc3ccccc3)c(=O)[nH]c2=O)n1`, the concentration at half-maximal activity (AC50) under setting [2] is 18.4 µM [rising, single point].
Take `CCCCCN1CC(O)=C(c2ccccc2)C1=N`: the cell number change was 16.9%. Moreover, the half-maximal activity concentration (AC50) under setting [2] is 4.61 µM [rising, partial curve].
Take `CCC1CCCCN1CCNC(=O)C1CCCN(S(=O)(=O)c2cccc3nsnc23)C1` (stereo not given): the cell number change is -8.94%. Besides, under setting [2], the AC50 is 29.1 µM [rising, single point].
For `Cc1n[nH]c(=O)c2c1nnn2Cc1ccccc1Cl`, the cell number change is -4.23%. The AC50 under setting [2] was 5.8 µM [falling, single point].
Turning to `CCOc1ccc(N2CC(C(=O)NCc3ccccc3)CC2=O)cc1` (stereo not given), the cell number change was -30.5%. In addition, under setting [1], the AC50 is 29.1 µM [falling, single point]. In addition, under setting [2], the concentration at half-maximal activity (AC50) is 29.1 µM [falling, single point].
As to `Cc1c(C#N)c2ccccc2n1CC(=O)NCC1CCCO1` (stereo not given), the cell number change turned out to be 11.1%. Besides, under setting [2], the AC50 is 6.51 µM [rising, single point].
In the case of `COc1cc2c(cc1OC)C(COc1ccc([N+](=O)[O-])cc1)NCC2` (stereo not given), the cell number change was determined as 20.8%.
For the compound `COC(=O)c1sccc1-c1ccc(/C=N/OCc2c(Cl)cccc2Cl)o1`, the cell number change was 28.2%. Moreover, the AC50 under setting [1] is 1.64 µM [rising, full curve, poor fit]. The AC50 under setting [2] was 29.1 µM [rising, single point].
In the case of `O=C1NCCN(Cc2ccc(-c3ccccc3)cc2)C1CC(=O)N1CCN(CCO)CC1` (stereo not given), the cell number change was 12.1%. For the same compound, the concentration at half-maximal activity (AC50) under setting [2] was 9.2 µM [rising, partial curve, poor fit].
Turning to `C=CCSc1nc(N)c(C#N)c(-c2ccc(C)cc2)c1C#N`, the concentration at half-maximal activity (AC50) is 1.3 µM [rising, full curve] under setting [1] and 0.92 µM [rising, full curve] under setting [2].
`CC1CC(C)CN(CC(=O)NCCc2ccc(S(N)(=O)=O)cc2)C1` (stereo not given): the cell number change is -7.82%. In addition, under setting [2], the AC50 is 0.082 µM [falling, partial curve, poor fit].
As to `Cc1ccc(CCN2CC(C(=O)NCCN3CCOCC3)CC2=O)cc1` (stereo not given), the cell number change is -22.5%. Also, the half-maximal activity concentration (AC50) under setting [2] was 32.6 µM [falling, single point].
For `COc1ccccc1N1CCN(C(=O)Cc2c(C(=O)O)[nH]c3ccc(Cl)cc23)CC1`, the cell number change is -32.2%. Besides, the AC50 under setting [1] is 0.13 µM [falling, full curve]. The AC50 under setting [2] was 0.13 µM [falling, full curve, poor fit].
As to `CC(C)n1cc(CN2CCC(n3nccc3NC(=O)Cc3ccccc3)CC2)cn1`, the cell number change was 19.6%. For the same compound, the AC50 under setting [2] was 0.092 µM [rising, full curve, poor fit].
Regarding `CN(C)C(=O)c1ccc(NC(=O)CSc2nnc(-c3cccs3)n2N)cc1`, the cell number change amounted to 5.1%. The half-maximal activity concentration (AC50) under setting [2] is 0.00461 µM [rising, full curve, poor fit].
On to `CCN1CCN(C(=O)c2ccc(Cl)c(S(=O)(=O)N(C)c3ccccc3)c2)CC1`, for which the cell number change is -10.8%. For the same compound, the half-maximal activity concentration (AC50) under setting [2] is 10.3 µM [falling, partial curve].
As to `C=Cn1nc(C)c2ccccc2c1=O`, the half-maximal activity concentration (AC50) under setting [2] is 6.51 µM [rising, partial curve, poor fit].
For `Cc1oc(-c2ccc(Cl)cc2)nc1CS(=O)CC(=O)NCCCN1CCN(Cc2ccccc2)CC1` (stereo not given), the cell number change was -49.2%. Besides, the AC50 under setting [1] is 29.1 µM [falling, single point].
Take `CN(C)CCN1C(=O)C(=O)/C(=C(/O)c2ccc(S(=O)(=O)N3CCOCC3)cc2)C1c1ccc(F)cc1` (stereo not given): the cell number change is -11.9%.
In the case of `Cc1cccc(N(C(=O)c2csnn2)C(C(=O)NCc2ccccc2)c2ccc(C)o2)c1` (stereo not given), the cell number change was determined as 4.05%. Moreover, the AC50 under setting [1] was 0.82 µM [rising, full curve].
For the compound `O=c1c(-c2ccc3c(c2)OCCO3)coc2cc(O)cc(O)c12`, the AC50 under setting [1] is 0.184 µM [falling, partial curve].
Take `Cc1nn(C2CCS(=O)(=O)C2)c(Cl)c1/C=C/C(=O)OCC(=O)Nc1ccc2c(c1)OCO2` (stereo not given): the cell number change is 16%.
In the case of `O=C(c1cccc(S(=O)(=O)N2CCCCCC2)c1)N1CCN(c2ccccc2F)CC1`, the cell number change is -1.89%. The half-maximal activity concentration (AC50) under setting [2] is 20.6 µM [falling, single point].
Consider `NC(=O)c1cc([N+](=O)[O-])c(Cl)cc1NCc1ccccn1`, for which the cell number change was -35.5%. In addition, the half-maximal activity concentration (AC50) under setting [1] is 10.3 µM [falling, partial curve].
In the case of `Cc1cc(/C=N\NC(=O)CC(=O)NC2CCCCC2)c(C)n1-c1ccc(Cl)c(Cl)c1`, the cell number change came out at 8.05%. Further, under setting [1], the AC50 was 0.206 µM [rising, full curve, poor fit].
For `COC(=O)CC1Oc2ccccc2N(Cc2ccc(C)cc2)C1=O` (stereo not given), the cell number change was -3.44%. Also, the half-maximal activity concentration (AC50) under setting [2] was 0.206 µM [falling, full curve, poor fit].
Turning to `Cc1cc(O)ccc1N1C(=O)c2cccc3cc([N+](=O)[O-])cc(c23)C1=O`, the cell number change was determined as 18.1%. The half-maximal activity concentration (AC50) under setting [1] was 0.00517 µM [rising, full curve, poor fit]. Also, the concentration at half-maximal activity (AC50) under setting [2] was 0.00461 µM [rising, full curve, poor fit].
Regarding `Cc1cc(=O)oc2c(CN3CCCC3)c(O)ccc12`, the cell number change was -9.72%.
Take `COc1ccc(S(=O)(=O)Nc2ccc3c(c2)N(C(C)=O)CCC3)cc1OC`: the cell number change was -1.1%. Under setting [2], the AC50 is 1.84 µM [falling, partial curve].
`CC(=O)c1ccc(OCCCC(=O)Nc2ccc(C)c(S(=O)(=O)N3CCOCC3)c2)cc1`: the cell number change is -99.7%. For the same compound, the half-maximal activity concentration (AC50) under setting [1] was 7.31 µM [falling, partial curve]. Further, the AC50 under setting [2] was 23.1 µM [falling, single point].
With `O=C(Nc1ccc(NC(=O)c2cccs2)cc1)c1ccco1`, the AC50 under setting [1] is 0.461 µM [rising, full curve].
Consider `COc1ccc(S(=O)(=O)NC(CC(=O)NCC2CCCO2)c2ccco2)cc1` (stereo not given), for which the cell number change is -61.7%. Besides, under setting [1], the AC50 is 3.26 µM [falling, full curve]. In addition, under setting [2], the AC50 is 5.17 µM [falling, full curve].
In the case of `CC(c1ccccc1)N1CC(C(=O)Nc2ccc(F)cc2)CC1=O` (stereo not given), the cell number change was found to be 0.249%. Under setting [1], the AC50 was 2.31 µM [rising, partial curve]. Moreover, under setting [2], the AC50 is 0.82 µM [rising, single point].
Turning to `CSc1nnc(Cc2cc(=O)[nH]c(=O)[nH]2)n1-c1cc(C)ccc1C`, the cell number change is -23.9%.
Turning to `O=C(Nc1c(F)cc(F)cc1Br)c1cc(S(=O)(=O)N2CCN(c3ccccn3)CC2)ccc1F`, the cell number change is 19.3%.
`O=C(c1cccs1)N1CCN(S(=O)(=O)c2ccccc2)CC1`: the cell number change worked out at 37.6%. For the same compound, under setting [1], the half-maximal activity concentration (AC50) was 20.6 µM [rising, single point].
For `CC1CCN(C(=O)c2ccc(N(C)S(C)(=O)=O)cc2)CC1`, the cell number change is -27.6%. The half-maximal activity concentration (AC50) under setting [1] is 0.116 µM [falling, full curve, poor fit]. Moreover, the half-maximal activity concentration (AC50) under setting [2] is 1.46 µM [falling, partial curve].
`CC(=O)Nc1ccc(S(=O)(=O)Nc2ccc(F)c([N+](=O)[O-])c2)cc1`: the cell number change is 4.3%. For the same compound, the concentration at half-maximal activity (AC50) under setting [2] was 0.411 µM [falling, single point].
Consider `Cc1cc(NC(=O)CSc2nnc(Nc3ccccc3C)s2)no1`, for which the cell number change is -40.4%. Also, the AC50 under setting [1] is 0.731 µM [falling, full curve, poor fit]. Moreover, the AC50 under setting [2] is 0.58 µM [falling, full curve].
In the case of `COc1ccc(-c2cc(C(=O)N/N=C(\C)c3cccnc3)c3ccccc3n2)c(OC)c1`, the AC50 under setting [2] is 29.1 µM [rising, single point].
As for `Cc1cc(OCC(=O)Nc2cnn(CCCC(=O)O)c2)ccc1Cl`, the cell number change is -8.73%. In addition, under setting [2], the AC50 is 32.6 µM [falling, single point].
Consider `CCOC(=O)c1ccc(S(=O)(=O)NC2CCCCCCC2)n1C`, for which the AC50 under setting [2] was 0.58 µM [rising, single point].

Broadly, the AC50 is the midpoint of the concentration-response curve, whichever way the signal moves. Read a high AC50 as weaker potency.
